# US20140017669
# How the values were obtained:
# Assay in all cases: enzyme reaction in vitro
# MnlI = conditions: purified recombinant protein, protein details: New England Biolabs
# BssKI = conditions: NEBuffer 3, 37 C, purified recombinant protein, protein details: New England Biolabs, label: internal fluorescein, IAbFQ
# StyD4I = conditions: NEBuffer 2, 30 C, purified recombinant protein, protein details: New England Biolabs, label: internal fluorescein, IAbFQ
# AlwI = conditions: NEBuffer 4 plus 15 mM MgCl2, 37 C, purified recombinant protein, protein details: New England Biolabs, label: 6-FAM, IAbFQ
# MspI = molecular target: T1, MspI (UniProt P11405); conditions: NEBuffer 4, 37 C, purified recombinant protein, protein details: New England Biolabs, label: IAbFQ, 6-FAM
# T1 sequence (looked up, limits assumed): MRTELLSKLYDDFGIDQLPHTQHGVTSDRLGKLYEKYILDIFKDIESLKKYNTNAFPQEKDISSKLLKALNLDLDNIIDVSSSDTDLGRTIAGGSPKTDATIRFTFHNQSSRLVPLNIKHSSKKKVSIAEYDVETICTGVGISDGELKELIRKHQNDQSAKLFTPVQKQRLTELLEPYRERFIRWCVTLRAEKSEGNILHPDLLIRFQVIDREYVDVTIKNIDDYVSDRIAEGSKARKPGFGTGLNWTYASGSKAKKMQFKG
# EarI = conditions: NEBuffer 4, 35 C, purified recombinant protein, protein details: New England Biolabs, label: JOE, BHQ
# Hpy8I = conditions: FD buffer, 30 C, purified recombinant protein, protein details: Fermentas, label: IAbFQ, 6-FAM
# RsaI = conditions: NEBuffer 4, 30 C, purified recombinant protein, protein details: New England Biolabs, label: IAbFQ, 6-FAM
# PmeI = conditions: NEBuffer 4, 30 C, purified recombinant protein, protein details: New England Biolabs, label: IAbFQ, 6-FAM
# [1] = NEBuffer 4, 10 mM extra MgCl2, 35 C
# [2] = single-stranded DNA, variant of BssKI/StyD4I CESA
# [3] = single-stranded DNA, variant of Hpy8I/RsaI CESA
# [4] = NEBuffer 4, 30 C, label: IAbFQ, 6-FAM
sequence,measurement,setting,value
CATCTCTTCCTCAGAGCCTGACTT / AAGTCAGGTGCTG / AGGAAGAGATG [Ex5 Rn5 CESA],activity on this sequence,MnlI; [1],active
CATCTCTTCCTCAGAGCCTGACTT / AAGTCAGGTGCTGAG / GAAGAGATG [Ex5 Rn2 CESA],activity on this sequence,MnlI; [1],active
CATCTCTTCCTCAGAGCCTGACTT / AAGTCAGGTGCTGAGG / AAGAGATG [Ex5 Rn1 CESA],activity on this sequence,"MnlI; NEBuffer 4, 15 mM extra MgCl2, 35 C",active
CATCTCTTCCTCAGAGCCTGACTT / AAGTCAGGTGCTGAGG [Ex5 Rn1 PESA],activity on this sequence,"MnlI; NEBuffer 4, 15 mM extra MgCl2, 35 C, variant of Ex5 Rn1 CESA",less active
CTCTCCAGGCAAGAGGT / ACCTACTTGCCT / GGAAGAGAT [BssKI/StyD4I CESA],activity on this sequence,BssKI,active
same,activity on this sequence,StyD4I,not active
CTCTCCAGGCAAGAGGT / ACCTACTTGCCT [BssKI/StyD4I PESA],activity on this sequence,BssKI; variant of BssKI/StyD4I CESA,active
same,activity on this sequence,StyD4I; variant of BssKI/StyD4I CESA,not active
CTCTCCAGGCAAGAGGT / ACCTACTTGCCTGGAAGAGAT [BssKI/StyD4I full duplex],activity on this sequence,BssKI,active
same,activity on this sequence,StyD4I,active
CTCTCCAGGCAAGAGGT [RE4F1-FIB],activity on this sequence,BssKI; [2],active
same,activity on this sequence,StyD4I; [2],not active
CTCTTCCACTTGATCCCGTAT / ATACGGGATCAAGT / GGAAGAGAT [AlwI CESA],activity on this sequence,AlwI,active
CTCTTCCACTTGATCCCGTAT / ATACGGGATCAAGT [AlwI PESA],activity on this sequence,AlwI; variant of AlwI CESA,active
CTCTTCCACTTGATCCCGTAT / ATACGGGATCAAGTGGAAGAGAT [AlwI full duplex],activity on this sequence,AlwI,active
CTCTTCCACTTGATCCCGTAT [EAS7-1(21)-FB],activity on this sequence,"AlwI; single-stranded DNA, variant of AlwI CESA",not active
CTCTTCCGGAGTTGCT / AGCAACTCC / GGAAGAGAT [MspI CESA],activity on this sequence,MspI,active
CTCTTCCGGAGTTGCT / AGCAACTCC [MspI PESA],activity on this sequence,MspI; variant of MspI CESA,not active
CTCTTCCGGAGTTGCT / AGCAACTCCGGAAGAGAT [MspI full duplex],activity on this sequence,MspI,active
CTCTTCCGGAGTTGCT [EAS1-4(16)-BF],activity on this sequence,"MspI; single-stranded DNA, variant of MspI CESA",not active
CTCTTCCTCAGCACCTGATT / AATCAGGTGCTGA / GGAAGAGAT [Ex5 Rn3 CESA (EAS1_10/EAS2_11/DF1)],activity on this sequence,MnlI; [1],active
CTCTTCCTCAGCACCTGATT / AATCAGGTGCTGA [Ex7 PESA A],activity on this sequence,"MnlI; no DF control, label: IAbFQ, JOE, variant of Ex7 CESA A",not active
CTCTTCCTCAGCAGTTCATC / GATGAACTGCTGA / GGAAGAGAT [EarI CESA (RE1F1(20)-JB/RE1S1(13)-5/D1F-3Sub1)],activity on this sequence,EarI,active
CTCTTCCTCAGCAGTTCATC / GATGAACTGCTGA / GGAAGAGAT [Ex2 CESA (EAS1-1(20)-JB/EAS2-1(13)/DF1)],activity on this sequence,"MnlI; DF generated by MNAzyme, label: JOE, BHQ1",active
CTCTTCCTCAGCAGTTCATC / GATGAACTGCTGA [EarI PESA],activity on this sequence,EarI,not active
CTCTTCCTCAGCAGTTCATC [RE1F1(20)-JB],activity on this sequence,EarI; single-stranded DNA,not active
CTCTTCCTCAGCAGTTCATT / AATGAACTGCTGA / GGAAGAGAT [Ex4 CESA (EAS1-1(20)-BJa/EAS2-1(13)-Ba/DF1)],activity on this sequence,"MnlI; DF generated by MNAzyme, label: IAbFQ, JOE",active
CTCTTCCTCTCTTCCCGGATGTCGGCCTCCTAGTACAGCG / TAGGATGTGAAGACGAGGAAGAGAT [Ex10 partially complementary duplex (EAS1_1/ASC-RE5F2-FB)],activity on this sequence,"MnlI; NEBuffer 4, 35 C, label: IAbFQ, 6-FAM, BHQ1",active
TAGGATGTGAAGACGAGGAAGAGAT [ASC-RE5F2(25)-FB],activity on this sequence,"MnlI; NEBuffer 4, 35 C, label: 6-FAM, BHQ1, single-stranded DNA",not active
TCAGCAGTACACAGAACC (double strand) [Hpy8I/RsaI full duplex],activity on this sequence,Hpy8I,active
same,activity on this sequence,RsaI,active
TCAGCAGTACACAGAACC / GGTTCTGTGT / AATGAACTGCTGA [Hpy8I/RsaI EIC],activity on this sequence,Hpy8I; variant of Hpy8I/RsaI CESA,not active
same,activity on this sequence,RsaI; variant of Hpy8I/RsaI CESA,not active
TCAGCAGTACACAGAACC / GGTTCTGTGT / ACTGCTGAG [Hpy8I/RsaI CESA],activity on this sequence,Hpy8I,active
same,activity on this sequence,RsaI,active
TCAGCAGTACACAGAACC / GGTTCTGTGT [Hpy8I/RsaI PESA],activity on this sequence,Hpy8I; variant of Hpy8I/RsaI CESA,not active
same,activity on this sequence,RsaI; variant of Hpy8I/RsaI CESA,not active
TCAGCAGTACACAGAACC [EAS3-1(18)-BF],activity on this sequence,Hpy8I; [3],not active
same,activity on this sequence,RsaI; [3],not active
TCAGCAGTTTAAACAACC (double strand) [PmeI full duplex],activity on this sequence,PmeI,active
TCAGCAGTTTAAACAACC / GGTTGTTTAA / AATGAACTGCTGA [PmeI EIC],activity on this sequence,PmeI; variant of PmeI CESA,not active
TCAGCAGTTTAAACAACC / GGTTGTTTAA / ACTGCTGAG [PmeI CESA],activity on this sequence,PmeI,active
TCAGCAGTTTAAACAACC / GGTTGTTTAA [PmeI PESA],activity on this sequence,PmeI; variant of PmeI CESA,not active
TCAGCAGTTTAAACAACC [EAS5-1(18)-BF],activity on this sequence,"PmeI; single-stranded DNA, variant of PmeI CESA",not active
TCAGTCCCACGTGTGA / TCAGCACCTCACACGTGGGAAGAG [Ex7 PESA B],activity on this sequence,"MnlI; no DF control, label: 6-FAM, IAbFQ, variant of Ex7 CESA B",not active
TCCGCAGCCTCCCTTCTCTAC / GAGGCTGCGGA / GTAGAGAAGG [Ex5 Rn6 candidate CESA],activity on this sequence,MnlI; [4],not active
TCCGCAGCCTCCCTTCTCTAC / GAGGCTGCGGA [Ex5 Rn6 PESA],activity on this sequence,"MnlI; NEBuffer 4, 30 C, label: IAbFQ, 6-FAM, variant of Ex5 Rn6 candidate CESA",not active
TCCGCAGCCTCCCTTCTCTAC / GGGAGGCTGCGGA / GTAGAGAA [Ex5 Rn7 CESA],activity on this sequence,MnlI; [4],active
TCCGCAGCCTCCCTTCTCTAC / GGGAGGCTGCGGA [Ex5 Rn7 PESA],activity on this sequence,"MnlI; NEBuffer 4, 30 C, label: IAbFQ, 6-FAM, variant of Ex5 Rn7 CESA",not active
TGGTTGAGCAGAGAGGGATCATC / TCTCTGCTCAACCA / GATGATCCC [Ex5 Rn8 CESA],activity on this sequence,"MnlI; NEBuffer 4, 35 C, label: IAbFQ, 6-FAM",active

# For some assays here: Negatives hold for the conditions tested. For some assays here: Where a protein sequence is shown, tags need not be part of it. For some assays here: For at least one entry, the source does not settle the construct or the ends of the probe. For some assays here: Weaker means in comparison with the reference protein, sequence or condition of that experiment.
